The text below walks through data of PMC12334043.

Experiment [1] concerns the target T1, CiLV-C p29 with an N-terminal HA epitope, transiently expressed (citrus leprosis virus C) (UniProt Q1KZ58).
T1 sequence: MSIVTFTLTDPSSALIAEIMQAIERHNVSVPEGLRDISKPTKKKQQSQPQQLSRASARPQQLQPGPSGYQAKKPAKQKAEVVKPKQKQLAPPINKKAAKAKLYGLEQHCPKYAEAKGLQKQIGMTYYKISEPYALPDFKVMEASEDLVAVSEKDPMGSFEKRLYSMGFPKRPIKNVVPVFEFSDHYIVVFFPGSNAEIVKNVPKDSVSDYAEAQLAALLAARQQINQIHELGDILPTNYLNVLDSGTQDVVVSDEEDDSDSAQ
The experiment in a line: co-IP; HA- and 3xMyc-tagged proteins transiently co-expressed in N. benthamiana leaves, 3 dpi; extract in 25 mM Tris HCl pH 7.4, 150 mM NaCl, 1 mM EDTA, 1% NP-40, 5% glycerol; Pierce anti-HA magnetic beads, 90 min at room temperature; blots with anti-HA and anti-c-Myc.

Experiment [2] addresses T2, CiLV-C p29 with a C-terminal HA epitope, transiently expressed (pMOG-p29:HA) (citrus leprosis virus C) (UniProt Q1KZ58).
T2 sequence: T1 sequence
The description is as above.

Results are given in words; binding and its absence hold for the method and conditions named. In cells and extracts the contact can be indirect. Tags and fused reporters may be left off the sequences shown.

Turning to “Poly(A)-binding protein with a C-terminal 3xMyc tag”, the binding entry in experiment [1] and in experiment [2] was “no binding” each time.

On to “Poly(A)-binding protein with an N-terminal 3xMyc tag”, for which the binding result in experiment [1] and in experiment [2] was “no binding” throughout.

For the substance eIF4E with a C-terminal 3xMyc tag, the binding entry in experiment [1] and in experiment [2] was “no binding” each time.

eIF4E with an N-terminal 3xMyc tag: the binding entry in experiment [1] and in experiment [2] was “no binding” in each case.
